# US8993768B2, “Tropolone compounds for treating or preventing retroviral infection” (The United States of America, as represented by the …, priority 2011, dated 2015)
# Some entries share one result that the patent states for a list of compounds.
# Target: T1, HIV-1 RT RNase H (Human immunodeficiency virus type 1 group M subtype B, UniProt P04585)
# T1 construct: RT is a p66/p51 heterodimer comprised of asymmetrically-organized subunits processed from the 165 kDa gag/pol polyprotein precursor; (His)6; made in house; host or cells: Escherichia coli
# Experiment: Cleavage of the HIV-1 polypurine tract (PPT) primer, PPT/U3 junction
# Assay type: biochemical
# Conditions: 20 μM inhibitor
# Protocol: FIG. 2A depicts a schematic model of RNA/DNA substrate, indicating the RNase H cleavage site at the PPT/U3 junction (< >). The PPT is indicated by the shaded box. FIG. 2B depicts the quantification of PPT cleavage data. All inhibitors were evaluated at 20 μM.
# IC50 values were determined as previously reported (Budihas, S. R., et al., Nucleic Acids Res., 33(4):1249-56 (2005)), using an 18-nucleotide 3′-flourescein-labeled RNA annealed to a complementary 18-nucleotide 5′-dabsyl-labeled DNA. […] The reaction was initiated by adding 1 μl of 100 mM MgCl2 to 9 μl of mixture containing 4 ng enzyme, 200 nM substrate, 20 μM α-hydroxytropolones in 50 mM Tris, pH 8.0, 80 mM KCl, 2 mM DTT, and 10% DMSO at 37° C., and quenched with 10 μl of a gel-loading buffer after 10 minutes. Hydrolysis products were fractionated by denaturing polyacrylamide gel electrophoresis and visualized by fluorescent imaging (Typhoon Trio+, GE Healthcare, Piscataway, N.J.). […]
compound,measurement,value
"Cc1cc(O)c(=O)c(O)c2c1CC(C(C)(O)Cn1ccnc1)CC2 (stereo not shown) [Compound 2, 5,7-Dihydroxy-2-(1-hydroxy-2-imadazol-1-yl-1-methyl-ethyl)-9-methyl-1,2,3,4-tetrahydro benzocyclohepten-6-one]",effect on cleavage specificity in the PPT assay,none altered cleavage specificity
